Results deposited as PubChem BioAssay AID652259 (Drosophila RNAi Screening Center, 2013)
The screen tested about 22,000 reagents; below is an unselected part of those with a known target gene and a result. Over the whole deposit, 233 (1.1%) were called active. 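Light values are raw, unnormalised plate reads; the ratio scores behind the reporter calls were not deposited.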 A number with no mark means an inactive call. The numbers tell different reagents against one gene apart. Names joined by + are all predicted targets of the reagent. Not given: the amount of reagent, the time to read-out, the dose of the treatment.

Purpose: 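Identify new Wingless signalling regulators in fly cells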 (primary screen)
Cell system: Drosophila clone 8 imaginal disc epithelial cells
Knock-down reagent: long dsRNA against Drosophila genes
Treatment: pathway stimulated by co-transfected Wingless expression plasmid
Detection: 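Firefly luciferase from a tcf-site Wingless reporter, measured alongside co-transfected Renilla luciferase that tracks transfection; pathway stimulated by a Wingless plasmid; the firefly-to-Renilla ratio is not deposited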
Reading the numbers: firefly reporter light: higher = more Wg reporter light, before normalisation; Renilla control light: higher = more transfected or surviving cells
Rule for the call: 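a knock-down is a candidate when at least two out of four statistical tests show it departing from its plate mean; one test alone signals a weak candidate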
Calls: active = candidate regulator (raises or lowers reporter); inactive = not a candidate

no.	gene	reagent	firefly reporter light, replicate 1	firefly reporter light, replicate 2	Renilla control light, replicate 1	Renilla control light, replicate 2
1	CG13575	1	3076	12263	914	3968
2	CG13575	2	4.40e5	4.46e5	1.83e5	1.84e5
3	CG7011	1	3073		1446	
4	Tgt (tRNA-guanine transglycosylase)	1	7272		2517	
5	CG34026	1	4624		1307	
6	CG32284	1	4041		2389	
7	Sec61alpha (Sec61 alpha subunit)	1	17698		4977	
8	CG11836	1	1723	5320	1095	1639
9	Rab9Fb (Rab at 9Fb)	1	19388		9744	
10	CG6067	1	12826		6601	
11	CG5897	1	5740		2912	
12	Mondo	1	14780		2437	
13	Mondo	2	2295	6781	726	2744
14	Mondo	3	3.06e5	3.39e5	1.16e5	1.06e5
15	Dnai2 (dynein, axonemal, intermediate chain 2)	1	6339		2196	
16	CG5614	1	20467		2937	
17	CG1946	1	3360	8484	960	3048
18	Ilp6 (Insulin-like peptide 6)	1	21808		15712	
19	p115	1	14056		8615	
20	CG9205	1	12402		4267	
21	LManIII (Lysosomal alpha-mannosidase III)	1	1323	3399	611	2176
22	CG30286	1	2776	6506	1227	2304
23	CG12057	1	16891		9782	
24	drosha	1	4380		1792	
25	cas (castor)	1	17244		3829	
26	CG1737	1	3194		641	
27	CG33253	1	32624		12950	
28	CG33253	2	27699	7.00e5	1257	3.11e5
29	cno (canoe)	1	1872		1228	
30	cno (canoe)	2	7010		402	
31	EMC6 (ER membrane protein complex subunit 6)	1	19031		17824	
32	Chi (Chip)	1	7434		3000	
33	alpha-Man-Ic (alpha-Mannosidase class I c)	1	6.31e5	5.48e5	2.98e5	2.12e5
34	CG12496	1	22535		8593	
35	CG14853	1	12759		6224	
36	CG14853	2	2.99e5	3.51e5	1.86e5	1.63e5
37	Herc4 (HECT and RLD domain containing E3 ubiquitin ligase 4)	1	5638		2969	
38	Rab27	1	6006	6536	1808	2690
39	HSPC300 (Haematopoietic stem/progenitor cell protein 300)	1	6.16e5	6.56e5	2.74e5	2.50e5
40	t-Grip84 (testis-specific gamma-tubulin ring protein 84)	1	977	6325	1200	3008
41	RpS10b (Ribosomal protein S10b)	1	18145		10053	
42	plum	1	1463	4153	946	1605
43	CG11357	1	965	4848	928	2954
44	Ude (Uracil-DNA degrading factor)	1	1988	5383	1089	1760
45	CG42262 (retired record)	1	3111		1396	
46	CG42262 (retired record)	2	15626		9713	
47	NTPase	1	8557		3261	
48	CG46298	1	3820	13152	540	3564
49	CG14356	1	15284		3336	
50	Rpp20 + CG33932	1	16433		10390	
51	l(3)87Df (lethal (3) 87Df)	1	17076		4279	
52	CG12498	1	14320		9156	
53	cag	1	2678	7520	1435	4279
54	VGlut (Vesicular glutamate transporter)	1	4288	9339	1496	3201
55	VGlut (Vesicular glutamate transporter)	2	6.10e5	4.79e5	3.33e5	1.60e5
56	Nep6 (Neprilysin 6)	1	1872	4877	582	1040
57	CG4853	1	18234		5296	
58	Ephrin	1	16528		11360	
59	CG9672	1	2178	5910	912	1361
60	ATPsynbeta (ATP synthase, beta subunit)	1	16855		8889	
61	CG14017	1	1043	3698	579	2371
62	CG11353	1	8490		3892	
63	CG18635	1	4005		1079	
64	Ugt35D1 (UDP-glycosyltransferase family 35 member D1)	1	16010		8023	
65	CG14182	1	14481		4293	
66	TwdlU (TweedleU)	1	19292		6112	
67	CG3803	1	3128	8072	722	2295
68	Dpy-30L1 (Dpy-30-like 1)	1	2450	7377	1114	4103
69	CG14442	1	1770	10184	436	1750
70	CG34434	1	15573		8170	
71	CG1208	1	5409		2097	
72	lncRNA:CR42859 (long non-coding RNA:CR42859)	1	17029		12444	
73	cyp33 (cyclophilin-33)	1	16730		4250	

An excerpt of the results above, as a working copy:
no.	gene	reagent	firefly reporter light, replicate 1	firefly reporter light, replicate 2	Renilla control light, replicate 1	Renilla control light, replicate 2
62	CG11353	1	8490		3892	
63	CG18635	1	4005		1079	
64	Ugt35D1 (UDP-glycosyltransferase family 35 member D1)	1	16010		8023	
65	CG14182	1	14481		4293	
66	TwdlU (TweedleU)	1	19292		6112	
67	CG3803	1	3128	8072	722	2295
68	Dpy-30L1 (Dpy-30-like 1)	1	2450	7377	1114	4103
69	CG14442	1	1770	10184	436	1750
